Experimental data published in PMC7317717, “Electrophysiological Characterization of Transport Across Outer‐Membrane Channels from Gram‐Negative Bacteria in Presence of Lipopolysaccharides” (Angewandte Chemie (International Ed. in English), 2020).

Molecular target: T1, OmpF (OmpF-WT) (Escherichia coli, UniProt P02931)
T1 construct: purified wild-type OmpF, mature porin, homotrimer, reconstituted in planar lipid bilayer; OMV form overexpressed in E. coli BL21(DE3)omp8
T1 sequence (P02931 23-362): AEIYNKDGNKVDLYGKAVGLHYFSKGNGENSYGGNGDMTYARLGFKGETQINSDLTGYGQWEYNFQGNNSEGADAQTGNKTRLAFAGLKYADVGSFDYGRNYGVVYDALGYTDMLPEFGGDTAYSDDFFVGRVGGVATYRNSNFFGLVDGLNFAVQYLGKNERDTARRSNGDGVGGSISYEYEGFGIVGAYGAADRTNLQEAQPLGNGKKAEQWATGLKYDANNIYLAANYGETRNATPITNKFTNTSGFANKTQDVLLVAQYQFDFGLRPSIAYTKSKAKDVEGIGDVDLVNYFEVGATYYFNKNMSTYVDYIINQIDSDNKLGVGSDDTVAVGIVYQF
Test: single-channel electrophysiology, planar lipid bilayer, ion current blockage events
Format: binding
Conditions: purified OmpF; 250 uM compound; 1 M KCl, 20 mM MES, pH 6

**Q.** For `O=C(O)c1cn(C2CC2)c2cc(N3CCNCC3)c(F)cc2c1=O` [Ciprofloxacin], which event rate is on record?
**A.** Its event rate is “In case of Ciprofloxacin, no significant change in the event rate was observed”.
